Measured values: PubChem BioAssay AID540256 (National Center for Advancing Translational Sciences (NCATS), 2011)
In all, about 300,000 compounds went through this assay and about 3,700 (1.2%) were called active. The shares of active, inactive and inconclusive entries below differ from those in the screen. The call rests on the fitted dose curve; tested in HEK293 cells. Where the call is inconclusive, the potency comes from a doubtful curve fit.

test: qHTS for Inhibitors of binding or entry into cells for Lassa Virus; settings: Lassa virus pseudotype entry inhibition, cell reporter; activity change, negative = inhibition: at 37.9 µM (top of the series) unless noted; further: nearly all actives have a fitted effect of over 50% in size
On the % scale 0 is the no-effect control and ±100 the full control effect; potency means the concentration at half of the fitted maximal effect.

| SMILES | Potency | activity change, negative = inhibition |
| --- | --- | --- |
| CC(=O)N(C1=NCCCS1)c1ccc(Cl)cc1 | inconclusive: 25.1 µM [inhibitor, partial curve, poor fit] |  |
| Cc1ccc(-c2nn(-c3ccccc3)cc2/C=N/NC(=O)c2ccncc2)o1 | inconclusive: 35.5 µM [inhibitor, single point] |  |
| COc1cc(NC(=O)Cn2c(=O)n(C(C)C)c(=O)c3oc4ccccc4c32)cc(OC)c1 |  | inactive: -7.74% [at 46.1 µM] |
| Cc1ccc(N(CC(=O)NC2CCCC2)C(=O)CCCC(=O)Nc2ccccn2)cc1C |  | inactive: -15.7% |
| CCOc1ccc(C(=O)OCC(=O)Nc2cccnc2Cl)cc1OCC | inconclusive: 35.5 µM [inhibitor, single point] |  |
| C/C(=N/NC(=O)c1ccco1)c1cccc(NC(=O)c2ccc(C)o2)c1 |  | inactive: 1.26% |
| CC(=O)N1CCc2cc(S(=O)(=O)NC(C(=O)Nc3ccc4c(c3)OCCO4)C(C)C)ccc21 (centres undefined) | inconclusive: 14.1 µM [activator, single point] |  |
| CCOc1ccccc1N1CC(c2nc3ccccc3n2CCCOc2ccccc2OC)CC1=O (centres undefined) | inconclusive: 12.6 µM [inhibitor, single point] |  |
| CCOc1ccc(/C(O)=C2/C(=O)C(=O)N(CCCN3CCOCC3)C2c2ccc(F)cc2)cc1C (centres undefined) | inconclusive: 8.91 µM [activator, partial curve, poor fit] |  |
| Cc1cc(NC(=O)CCCn2nc(C)c([N+](=O)[O-])c2C)no1 |  | inactive: -4.17% [at 46.1 µM] |
| Cc1ccc(N2C(=O)CC(N3CCc4ccccc43)C2=O)cc1Cl (centres undefined) | inconclusive: 2.82 µM [activator, full curve, poor fit] |  |
| COc1ccc(C)cc1S(=O)(=O)NCC(c1ccc2c(c1)OCO2)N1CCN(C)CC1 (centres undefined) | inconclusive: 14.1 µM [inhibitor, partial curve, poor fit] |  |
| O=C(CCc1ccccc1)n1nc(-c2ccccc2)nc1NCc1ccco1 | inconclusive: 18.3 µM [activator, single point] |  |
| N#CC1CN(Cc2ccccc2)CN(Cc2ccccc2)C1 |  | inactive: -20.5% [at 46.1 µM] |
| Cc1cnc(Nc2nc3ccccc3o2)nc1C(=O)Nc1cccc(C(F)(F)F)c1 |  | inactive: 0.385% |
| CN1C(=S)SC(/[N+]([O-])=C\c2ccccc2)C1(C)C (centres undefined) |  | inactive: -2.45% |
| COCCCNCCCOc1ccc(Cl)cc1C(C)(C)C | inconclusive: 28.2 µM [inhibitor, single point] |  |
| Cc1cc(NC(=O)CSCC(=O)Nc2cc(C(F)(F)F)ccc2N2CCCCC2)no1 |  | inactive: -0.523% |
| Cc1ccc(NC(=O)CCS(=O)(=O)c2ccc3nc(C)sc3c2)cc1 |  | inactive: 1.54% [at 46.1 µM] |
| Cc1cccc(C)c1-n1c(C)cc(/C=C2\NC(=O)NC2=O)c1C | inconclusive: 29.1 µM [inhibitor, single point] |  |
| NC1=NC(c2ccccc2)CC(=O)N1 (centres undefined) |  | inactive: 11.5% [at 46.1 µM] |
| O=C1/C(=C\c2ccc3ccccc3c2)CCCc2ccccc21 | inconclusive: 35.5 µM [inhibitor, single point] |  |
| Cc1ccccc1OCc1nnc(SCC(=O)Nc2ccc3nc(SCC(=O)Nc4ccccc4)sc3c2)n1C | inconclusive: 3.66 µM [inhibitor, full curve] |  |

2 compounds picked at random from the list so far, as already listed:

| SMILES | Potency | activity change, negative = inhibition |
| --- | --- | --- |
| CC(=O)N(C1=NCCCS1)c1ccc(Cl)cc1 | inconclusive: 25.1 µM [inhibitor, partial curve, poor fit] |  |
| Cc1ccccc1OCc1nnc(SCC(=O)Nc2ccc3nc(SCC(=O)Nc4ccccc4)sc3c2)n1C | inconclusive: 3.66 µM [inhibitor, full curve] |  |

Additional compounds follow.

| SMILES | Potency | activity change, negative = inhibition |
| --- | --- | --- |
| CCCCN(CC)CCCNC(=O)CC1Oc2ccccc2NC1=O (centres undefined) | inconclusive: 32.6 µM [activator, single point] |  |
| CC(C)C(OC(=O)C1=Cc2ccccc2OC1)C(=O)NC1CCCC1 (centres undefined) |  | inactive: 16.7% |
| Cc1ccc(-c2nnn(CC(=O)N(Cc3ccco3)C(C(=O)NC(C)(C)C)c3ccc(C)o3)n2)o1 (centres undefined) | inconclusive: 7.08 µM [inhibitor, partial curve, poor fit] |  |
| O=C(O)c1nn(-c2ccccc2)nc1-c1nn(-c2ccccc2)nc1C(=O)O |  | inactive: -4.19% |
| CCC1(OC(=O)CN(C)C)C(=O)OCc2c1cc1n(c2=O)Cc2cc3c(N)cccc3nc2-1 (centres undefined) | inconclusive: 0.0891 µM [inhibitor, full curve, poor fit] |  |
| COC(=O)c1ccc(NC(=O)c2nc(S(=O)(=O)Cc3cccc(C)c3)ncc2Cl)cc1 | inconclusive: 10 µM [inhibitor, single point] |  |
| CCOc1ccc(CCNS(=O)(=O)c2c(C)nc3sc(C)cn3c2=O)cc1OCC |  | inactive: 16.2% [at 46.1 µM] |
| CC(=O)c1ccc(NC(=O)CCc2c(C)nn(-c3ccc4nncn4n3)c2C)cc1 | inconclusive: 6.31 µM [activator, partial curve, poor fit] |  |
| O=C(OCC(=O)N1CCOCC1)c1cccc(F)c1 | inconclusive: 2.82 µM [activator, partial curve, poor fit] |  |
| CCCCC1(C)NC(=O)c2c(C)sc(C(=O)OCC)c2N1 (centres undefined) |  | inactive: -4.14% |
| Cc1cc(F)ccc1S(=O)(=O)N1CCCOC1CNC(=O)C(=O)NCCCN1CCOCC1 (centres undefined) | inconclusive: 6.31 µM [activator, single point] |  |
| CC(=O)Nc1ccc(NC(=O)C2CCCCN2S(=O)(=O)c2ccc(C(C)(C)C)cc2)cc1 (centres undefined) | inconclusive: 35.5 µM [inhibitor, single point] |  |
| COc1ccccc1-c1c(C)nn2c(N3CCC(C)CC3)cc(C)nc12 |  | inactive: -11.2% [at 46.1 µM] |
| COc1ccc(-c2noc(CN(C(=O)c3ccoc3C)C(C)C)n2)cc1 | inconclusive: 7.94 µM [inhibitor, partial curve, poor fit] |  |
| CC1CCN(S(=O)(=O)c2cc(C(=O)NCc3ccc(F)cc3)n(C)c2)CC1 |  | inactive: -7.82% [at 46.1 µM] |
| CCOC(=O)c1ccc(N2C(=O)c3n[nH]c(C)c3C2c2ccc(OC)cc2)cc1 (centres undefined) |  | inactive: -15.2% |
| COc1ccccc1OCCCn1cc(C(C)=O)c2ccccc21 | inconclusive: 35.5 µM [inhibitor, single point] |  |
| O=C(Nc1noc2ccccc12)c1cccc(F)c1 | inconclusive: 3.98 µM [activator, single point] |  |
| Cc1cc(N(C)C)ccc1N=Nc1ccc(N)cc1 | inconclusive: 10 µM [inhibitor, partial curve] |  |
| c1ccc(OCCSc2nnnn2-c2ccccc2)cc1 | inconclusive: 14.1 µM [inhibitor, single point] |  |
| COc1cccc(C(=O)Nc2nnc(-c3cccs3)s2)c1 | inconclusive: 6.31 µM [inhibitor, partial curve, poor fit] |  |
| COC(=O)c1ccc(N=NNc2cccc(Br)c2)cc1 | inconclusive: 1 µM [activator, full curve, poor fit] |  |
| CN(CCc1ccccn1)C(=S)Nc1ccc(Cl)c(Cl)c1 |  | inactive: -7.67% |

| SMILES | Potency | activity change, negative = inhibition |
| --- | --- | --- |
| CC1CCN(S(=O)(=O)c2ccc(NC(=O)c3ccncc3)cc2)CC1 | inconclusive: 17.8 µM [inhibitor, partial curve, poor fit] |  |
| COc1ccc(Cl)cc1Nc1ncnc2c1nc1n2CCCC1 | inconclusive: 12.6 µM [inhibitor, single point] |  |
| CCc1ccc(OCc2nc(-c3ccccn3)no2)c(Br)c1 | inconclusive: 32.6 µM [inhibitor, single point] |  |
| CSc1ccc(S(=O)(=O)NCCOc2ccccc2C)cc1 | inconclusive: 0.651 µM [inhibitor, partial curve, poor fit] |  |
| CCN(CC)C(=O)N1CCN(S(=O)(=O)c2ccc(C)cc2)CC1 | inconclusive: 29.1 µM [inhibitor, single point] |  |
| O=c1c(F)cn(C2CCCO2)c(=O)n1Cc1c(Cl)cccc1Cl (centres undefined) |  | inactive: -28.8% [at 14.3 µM] |
| Cc1cc(-c2ccccc2)nc(N2CCC(C(=O)NC34CC5CC(CC(C5)C3)C4)CC2)n1 | inconclusive: 0.73 µM [activator, partial curve] |  |
| Cc1nc2sc(C(=O)OCC(=O)N3c4ccccc4CC3C)c(C)c2c(=O)[nH]1 (centres undefined) | inconclusive: 35.5 µM [inhibitor, single point] |  |
| CCSc1nnc(-c2ccc(S(=O)(=O)N3CCOCC3)cc2)n1C |  | inactive: 22.2% |
| CSc1ccccc1OCc1cc(C(=O)N2C[C@H]3CC[C@H]2C3)no1 | inconclusive: 22.4 µM [inhibitor, single point] |  |
| NCCc1nc(-c2ccccc2)cs1 |  | inactive: 40.5% |
| Cc1nc2ccc3nc(NC(=O)c4ccc5c(c4)OCCO5)sc3c2s1 | inconclusive: 6.51 µM [activator, single point] |  |
| Cc1c(C(=O)Nc2nccs2)oc2ccc(Br)cc12 | inconclusive: 2 µM [inhibitor, full curve, poor fit] |  |
| CC(C)c1ccc(NS(=O)(=O)c2ccc3[nH]c(=O)ccc3c2)cc1 |  | inactive: -14.2% [at 46.1 µM] |
| O=C(Nc1ccc2oc(-c3ccccc3Cl)nc2c1)c1cncc(Br)c1 | inconclusive: 29.1 µM [inhibitor, single point] |  |
| CCOC(=O)C(C)(C)N(Cc1cccc(C)c1)S(=O)(=O)c1ccc(Cl)c([N+](=O)[O-])c1 | inconclusive: 22.4 µM [inhibitor, single point] |  |
| Cc1cc(-c2ccc(N=Nc3c(S(=O)(=O)O)cc4cc(S(=O)(=O)O)cc(N)c4c3O)c(C)c2)ccc1N=Nc1c(S(=O)(=O)O)cc2cc(S(=O)(=O)O)cc(N)c2c1O | inconclusive: 14.1 µM [inhibitor, partial curve, poor fit] |  |
| Cc1cc(C)n(-c2nc(NCCO)c3c4c(sc3n2)CCCC4)n1 | inconclusive: 35.5 µM [inhibitor, single point] |  |
| Cc1cc(/C=C(/C#N)c2cccc(Cl)c2)c(C)n1C |  | inactive: 11.1% |
| Cc1cc(NC(=S)N(Cc2ccc(Br)cc2)Cc2ccc(C(=O)O)cc2)ccc1Cl | inconclusive: 20 µM [inhibitor, partial curve, poor fit] |  |
| O=C1CCN(C(=O)CCCn2c(=O)oc3ccccc32)CC1 |  | inactive: 6.27% |
| O=C(NCc1ccc(Cl)cc1)C(=O)NCC(c1ccco1)S(=O)(=O)c1cccs1 (centres undefined) |  | inactive: -15.4% [at 46.1 µM] |
| Cc1ccc(NC(=O)CN2CCOCC2)cc1S(=O)(=O)N1CCCCC1 | inconclusive: 28.2 µM [inhibitor, single point] |  |

Of the compounds above, 10 have two or more sulfur atoms.

| SMILES | Potency | activity change, negative = inhibition |
| --- | --- | --- |
| CN1C(=S)SC(/[N+]([O-])=C\c2ccccc2)C1(C)C (centres undefined) |  | inactive: -2.45% |
| Cc1ccc(NC(=O)CCS(=O)(=O)c2ccc3nc(C)sc3c2)cc1 |  | inactive: 1.54% [at 46.1 µM] |
| Cc1ccccc1OCc1nnc(SCC(=O)Nc2ccc3nc(SCC(=O)Nc4ccccc4)sc3c2)n1C | inconclusive: 3.66 µM [inhibitor, full curve] |  |
| CCOc1ccc(CCNS(=O)(=O)c2c(C)nc3sc(C)cn3c2=O)cc1OCC |  | inactive: 16.2% [at 46.1 µM] |
| COc1cccc(C(=O)Nc2nnc(-c3cccs3)s2)c1 | inconclusive: 6.31 µM [inhibitor, partial curve, poor fit] |  |
| CSc1ccc(S(=O)(=O)NCCOc2ccccc2C)cc1 | inconclusive: 0.651 µM [inhibitor, partial curve, poor fit] |  |
| CCSc1nnc(-c2ccc(S(=O)(=O)N3CCOCC3)cc2)n1C |  | inactive: 22.2% |
| Cc1nc2ccc3nc(NC(=O)c4ccc5c(c4)OCCO5)sc3c2s1 | inconclusive: 6.51 µM [activator, single point] |  |
| Cc1cc(-c2ccc(N=Nc3c(S(=O)(=O)O)cc4cc(S(=O)(=O)O)cc(N)c4c3O)c(C)c2)ccc1N=Nc1c(S(=O)(=O)O)cc2cc(S(=O)(=O)O)cc(N)c2c1O | inconclusive: 14.1 µM [inhibitor, partial curve, poor fit] |  |
| O=C(NCc1ccc(Cl)cc1)C(=O)NCC(c1ccco1)S(=O)(=O)c1cccs1 (centres undefined) |  | inactive: -15.4% [at 46.1 µM] |
